Laboratory results reported in the supplement of paper PMC12067093, “Discovery and optimisation of a covalent ligand for TRIM25 and its application to targeted protein ubiquitination” (Chemical Science, 2025).
This is one part of the list.

Protein sequences, listed by entry. Tags and fused reporters are not part of them. Lines headed by an entry give the natural chain unless they say otherwise; changes in a name come on top.
UniProt Q9H0D6: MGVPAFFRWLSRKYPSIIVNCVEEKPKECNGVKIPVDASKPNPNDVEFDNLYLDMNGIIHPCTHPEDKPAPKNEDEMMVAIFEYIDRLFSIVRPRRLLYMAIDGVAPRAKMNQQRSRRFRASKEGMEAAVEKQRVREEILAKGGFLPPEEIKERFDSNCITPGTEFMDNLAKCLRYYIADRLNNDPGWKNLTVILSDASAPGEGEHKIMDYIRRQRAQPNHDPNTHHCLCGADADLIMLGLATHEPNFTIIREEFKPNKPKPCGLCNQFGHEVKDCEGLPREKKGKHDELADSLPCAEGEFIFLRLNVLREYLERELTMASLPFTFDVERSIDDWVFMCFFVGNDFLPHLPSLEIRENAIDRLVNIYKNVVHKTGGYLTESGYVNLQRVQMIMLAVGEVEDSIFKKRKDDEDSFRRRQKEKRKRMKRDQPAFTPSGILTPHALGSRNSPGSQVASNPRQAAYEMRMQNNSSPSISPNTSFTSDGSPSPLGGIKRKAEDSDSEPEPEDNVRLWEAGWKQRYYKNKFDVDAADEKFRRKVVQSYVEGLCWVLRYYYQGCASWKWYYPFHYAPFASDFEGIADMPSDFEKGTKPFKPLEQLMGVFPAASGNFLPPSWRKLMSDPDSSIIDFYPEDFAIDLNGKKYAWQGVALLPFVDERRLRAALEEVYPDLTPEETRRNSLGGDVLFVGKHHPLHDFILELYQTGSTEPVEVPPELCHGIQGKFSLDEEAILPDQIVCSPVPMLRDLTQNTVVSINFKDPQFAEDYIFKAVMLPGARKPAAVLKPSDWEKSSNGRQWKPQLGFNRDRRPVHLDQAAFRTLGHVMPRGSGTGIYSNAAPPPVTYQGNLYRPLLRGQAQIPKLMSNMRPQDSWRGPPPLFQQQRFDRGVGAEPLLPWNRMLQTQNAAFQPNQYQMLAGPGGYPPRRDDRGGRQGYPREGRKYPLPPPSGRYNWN
UniProt P13010: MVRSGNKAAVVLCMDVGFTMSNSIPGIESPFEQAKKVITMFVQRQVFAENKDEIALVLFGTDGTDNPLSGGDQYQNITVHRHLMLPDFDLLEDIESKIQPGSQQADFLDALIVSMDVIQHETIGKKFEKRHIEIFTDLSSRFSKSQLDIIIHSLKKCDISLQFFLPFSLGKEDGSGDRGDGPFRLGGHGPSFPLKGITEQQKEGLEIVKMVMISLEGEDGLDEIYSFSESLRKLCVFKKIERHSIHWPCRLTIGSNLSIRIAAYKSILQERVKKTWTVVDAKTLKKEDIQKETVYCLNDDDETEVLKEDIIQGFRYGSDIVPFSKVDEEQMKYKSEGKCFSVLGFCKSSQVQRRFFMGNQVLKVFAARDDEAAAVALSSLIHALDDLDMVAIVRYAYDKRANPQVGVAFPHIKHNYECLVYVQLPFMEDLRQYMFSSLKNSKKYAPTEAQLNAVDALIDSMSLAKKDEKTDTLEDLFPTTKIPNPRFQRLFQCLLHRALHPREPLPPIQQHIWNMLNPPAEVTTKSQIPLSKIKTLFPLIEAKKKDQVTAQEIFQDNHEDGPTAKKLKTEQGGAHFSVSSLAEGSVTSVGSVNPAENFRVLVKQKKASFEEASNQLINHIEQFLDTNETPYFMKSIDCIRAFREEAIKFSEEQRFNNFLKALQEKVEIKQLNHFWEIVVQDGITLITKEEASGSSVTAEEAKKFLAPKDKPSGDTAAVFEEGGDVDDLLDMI
UniProt Q9HAV4: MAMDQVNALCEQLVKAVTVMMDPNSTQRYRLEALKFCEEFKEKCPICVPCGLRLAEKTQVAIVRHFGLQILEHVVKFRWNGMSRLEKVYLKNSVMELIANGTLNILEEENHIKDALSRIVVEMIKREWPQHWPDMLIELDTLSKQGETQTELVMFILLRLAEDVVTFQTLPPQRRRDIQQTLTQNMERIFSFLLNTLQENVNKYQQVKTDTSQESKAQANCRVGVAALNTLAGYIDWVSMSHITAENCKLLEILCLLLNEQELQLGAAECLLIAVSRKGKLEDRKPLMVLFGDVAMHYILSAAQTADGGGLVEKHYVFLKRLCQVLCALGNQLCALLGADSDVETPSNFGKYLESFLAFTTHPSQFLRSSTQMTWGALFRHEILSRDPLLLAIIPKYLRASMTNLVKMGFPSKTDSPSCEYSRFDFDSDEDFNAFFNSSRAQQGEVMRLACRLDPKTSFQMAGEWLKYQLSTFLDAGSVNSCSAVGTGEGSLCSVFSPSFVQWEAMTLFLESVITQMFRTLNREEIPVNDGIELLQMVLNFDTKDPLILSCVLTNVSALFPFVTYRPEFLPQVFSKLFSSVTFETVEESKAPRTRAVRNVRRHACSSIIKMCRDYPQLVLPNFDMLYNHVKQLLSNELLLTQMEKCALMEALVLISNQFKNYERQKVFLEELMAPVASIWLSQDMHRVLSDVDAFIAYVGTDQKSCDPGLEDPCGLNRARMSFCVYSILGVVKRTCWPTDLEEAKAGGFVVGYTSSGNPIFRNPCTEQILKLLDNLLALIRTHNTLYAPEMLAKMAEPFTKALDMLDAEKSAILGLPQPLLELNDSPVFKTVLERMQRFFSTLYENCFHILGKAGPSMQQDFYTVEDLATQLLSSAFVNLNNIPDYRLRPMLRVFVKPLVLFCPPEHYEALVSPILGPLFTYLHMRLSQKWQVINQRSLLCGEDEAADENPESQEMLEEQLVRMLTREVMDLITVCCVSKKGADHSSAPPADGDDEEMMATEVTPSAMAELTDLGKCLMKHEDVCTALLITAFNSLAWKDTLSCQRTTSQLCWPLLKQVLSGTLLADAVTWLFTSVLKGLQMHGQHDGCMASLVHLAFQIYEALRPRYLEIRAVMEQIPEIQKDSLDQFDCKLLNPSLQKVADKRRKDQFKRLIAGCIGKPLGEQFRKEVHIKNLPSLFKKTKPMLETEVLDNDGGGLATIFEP
UniProt Q9H6S0: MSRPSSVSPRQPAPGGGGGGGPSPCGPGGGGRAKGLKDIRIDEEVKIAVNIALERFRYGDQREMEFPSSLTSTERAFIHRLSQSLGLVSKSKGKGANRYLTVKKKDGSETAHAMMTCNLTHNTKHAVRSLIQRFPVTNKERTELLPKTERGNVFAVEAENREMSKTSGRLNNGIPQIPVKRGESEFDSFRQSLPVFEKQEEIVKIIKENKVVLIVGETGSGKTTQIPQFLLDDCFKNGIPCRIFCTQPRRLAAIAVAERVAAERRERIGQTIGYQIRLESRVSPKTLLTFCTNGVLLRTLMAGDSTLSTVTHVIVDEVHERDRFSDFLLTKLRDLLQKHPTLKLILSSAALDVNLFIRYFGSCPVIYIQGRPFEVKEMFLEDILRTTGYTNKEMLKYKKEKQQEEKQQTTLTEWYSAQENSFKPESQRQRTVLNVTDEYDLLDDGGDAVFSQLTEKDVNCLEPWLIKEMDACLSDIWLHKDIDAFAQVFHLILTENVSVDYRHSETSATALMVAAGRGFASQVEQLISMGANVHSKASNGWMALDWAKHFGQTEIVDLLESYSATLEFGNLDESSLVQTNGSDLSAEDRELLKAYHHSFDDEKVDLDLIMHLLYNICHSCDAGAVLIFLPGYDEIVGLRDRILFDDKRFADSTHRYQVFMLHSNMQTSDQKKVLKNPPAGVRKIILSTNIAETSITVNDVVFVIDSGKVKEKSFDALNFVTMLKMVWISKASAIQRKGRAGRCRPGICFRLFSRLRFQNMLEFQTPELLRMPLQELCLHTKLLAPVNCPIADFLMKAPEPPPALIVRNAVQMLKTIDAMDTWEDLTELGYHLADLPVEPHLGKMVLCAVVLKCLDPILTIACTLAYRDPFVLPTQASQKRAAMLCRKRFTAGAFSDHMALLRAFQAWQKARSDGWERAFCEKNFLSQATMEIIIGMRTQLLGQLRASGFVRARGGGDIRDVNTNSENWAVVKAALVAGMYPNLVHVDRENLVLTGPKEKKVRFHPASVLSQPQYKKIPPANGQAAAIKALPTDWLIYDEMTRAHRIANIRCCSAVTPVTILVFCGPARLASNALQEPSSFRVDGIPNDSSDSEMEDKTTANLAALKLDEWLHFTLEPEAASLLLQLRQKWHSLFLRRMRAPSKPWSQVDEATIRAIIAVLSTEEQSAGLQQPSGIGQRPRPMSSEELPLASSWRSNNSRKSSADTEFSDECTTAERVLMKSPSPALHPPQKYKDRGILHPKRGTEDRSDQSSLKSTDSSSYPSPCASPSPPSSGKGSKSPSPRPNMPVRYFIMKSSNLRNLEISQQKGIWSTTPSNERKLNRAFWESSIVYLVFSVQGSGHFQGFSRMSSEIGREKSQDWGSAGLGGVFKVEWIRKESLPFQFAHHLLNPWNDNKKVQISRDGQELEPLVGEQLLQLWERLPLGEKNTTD
UniProt Q7Z2W4: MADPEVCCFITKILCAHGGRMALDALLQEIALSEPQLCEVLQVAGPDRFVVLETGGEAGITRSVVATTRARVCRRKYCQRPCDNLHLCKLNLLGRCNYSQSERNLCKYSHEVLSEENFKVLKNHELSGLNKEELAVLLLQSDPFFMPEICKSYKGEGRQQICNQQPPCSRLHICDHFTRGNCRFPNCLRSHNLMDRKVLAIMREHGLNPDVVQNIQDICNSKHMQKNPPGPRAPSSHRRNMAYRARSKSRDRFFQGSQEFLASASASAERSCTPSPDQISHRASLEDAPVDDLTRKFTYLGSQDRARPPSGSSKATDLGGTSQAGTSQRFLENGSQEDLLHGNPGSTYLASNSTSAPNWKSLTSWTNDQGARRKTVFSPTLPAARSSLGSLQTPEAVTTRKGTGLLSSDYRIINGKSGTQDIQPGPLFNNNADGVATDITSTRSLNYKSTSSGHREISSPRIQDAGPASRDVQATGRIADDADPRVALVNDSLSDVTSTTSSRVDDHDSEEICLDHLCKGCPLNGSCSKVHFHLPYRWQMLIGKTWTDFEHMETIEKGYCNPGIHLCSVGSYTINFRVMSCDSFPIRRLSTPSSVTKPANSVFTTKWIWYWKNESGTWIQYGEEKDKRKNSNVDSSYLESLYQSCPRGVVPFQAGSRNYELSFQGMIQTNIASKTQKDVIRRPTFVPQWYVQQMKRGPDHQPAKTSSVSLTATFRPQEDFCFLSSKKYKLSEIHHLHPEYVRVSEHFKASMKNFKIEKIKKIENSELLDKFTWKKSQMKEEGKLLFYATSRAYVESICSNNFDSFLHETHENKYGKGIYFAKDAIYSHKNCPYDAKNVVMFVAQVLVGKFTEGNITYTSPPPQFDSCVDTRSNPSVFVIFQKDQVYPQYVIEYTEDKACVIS
UniProt Q96QU8: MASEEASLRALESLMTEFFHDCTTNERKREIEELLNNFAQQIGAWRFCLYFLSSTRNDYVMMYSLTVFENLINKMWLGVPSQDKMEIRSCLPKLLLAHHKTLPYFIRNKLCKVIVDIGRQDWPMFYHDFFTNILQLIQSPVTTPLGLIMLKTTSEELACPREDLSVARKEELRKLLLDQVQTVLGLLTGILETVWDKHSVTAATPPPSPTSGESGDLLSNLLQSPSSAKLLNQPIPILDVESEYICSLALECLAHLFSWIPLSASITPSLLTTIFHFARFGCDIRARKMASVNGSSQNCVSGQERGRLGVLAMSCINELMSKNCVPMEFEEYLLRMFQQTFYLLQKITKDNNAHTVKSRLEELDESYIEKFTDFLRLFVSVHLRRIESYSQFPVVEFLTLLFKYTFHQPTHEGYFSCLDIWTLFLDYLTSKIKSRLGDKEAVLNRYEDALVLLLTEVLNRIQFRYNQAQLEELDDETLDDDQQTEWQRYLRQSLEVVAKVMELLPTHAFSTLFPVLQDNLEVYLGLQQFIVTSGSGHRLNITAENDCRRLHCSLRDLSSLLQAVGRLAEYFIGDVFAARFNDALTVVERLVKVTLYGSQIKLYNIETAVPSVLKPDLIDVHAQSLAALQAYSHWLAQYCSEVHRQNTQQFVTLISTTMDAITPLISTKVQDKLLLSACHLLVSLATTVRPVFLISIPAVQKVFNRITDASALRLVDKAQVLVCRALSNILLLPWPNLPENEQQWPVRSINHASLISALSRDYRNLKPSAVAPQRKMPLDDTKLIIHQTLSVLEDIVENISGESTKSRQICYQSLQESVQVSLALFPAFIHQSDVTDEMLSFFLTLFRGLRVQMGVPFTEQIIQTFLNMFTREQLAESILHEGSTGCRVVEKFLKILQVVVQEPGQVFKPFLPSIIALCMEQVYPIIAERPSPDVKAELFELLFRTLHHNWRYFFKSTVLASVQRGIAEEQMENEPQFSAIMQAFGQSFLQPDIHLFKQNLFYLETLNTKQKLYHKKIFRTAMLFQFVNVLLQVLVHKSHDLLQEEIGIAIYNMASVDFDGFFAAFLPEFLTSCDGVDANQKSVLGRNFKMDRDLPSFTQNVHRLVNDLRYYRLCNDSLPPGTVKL
UniProt P62258: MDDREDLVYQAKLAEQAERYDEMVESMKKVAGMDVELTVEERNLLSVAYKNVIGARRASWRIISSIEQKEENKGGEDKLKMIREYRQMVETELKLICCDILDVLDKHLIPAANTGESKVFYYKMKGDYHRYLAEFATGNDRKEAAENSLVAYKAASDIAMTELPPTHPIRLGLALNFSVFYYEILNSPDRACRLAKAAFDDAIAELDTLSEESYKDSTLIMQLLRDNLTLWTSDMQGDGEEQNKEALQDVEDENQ

Compound: CC1Cc2ccccc2N1C(=O)C1CCCN(C1)C(=O)CCl (mixture of isomers) [TRIM25 ligand 11 (diastereomer mixture)]
Experiment: probe-labelled cysteine peptide fold change vs DMSO (competition) (log2 fold change); higher = less target engagement (more negative = stronger competition)
Details: 50 µM; THP-1; incubation time: 4 h
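Further: competitive chemoproteomic profiling in live THP-1 cells with an iodoacetamide desthiobiotin (IA-DTB) probe, comparing probe-labelled peptide intensities in compound-treated cells against DMSO-treated controls.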

Target	probe-labelled cysteine peptide fold change
YRDC_Q86U90_256_FGIIRPGCALESTTAILQQK (UniProt Q86U90)	0.0046
XRN2_Q9H0D6_296_GKHDELADSLPCAEGEFIFLR (UniProt Q9H0D6)	-0.0177
XRCC5_P13010_249_HSIHWPCR (UniProt P13010)	0.0697
XRN1_Q8IZH2_598_NQHSECLMCWYDRDTEFIYPSPWPEK (UniProt Q8IZH2)	0.142
XPO5_Q9HAV4_736_TCWPTDLEEAK (UniProt Q9HAV4)	0.136
ZBTB11_O95625_796_HLGVKPFQCQFCDK (UniProt O95625)	-0.24
ZC3H11A_O75152_588_GDVASCNTQVAEKPVLTAVPGITR (UniProt O75152)	-0.211
YTHDC2_Q9H6S0_788_LLAPVNCPIADFLMK (UniProt Q9H6S0)	-0.147
ZC3HAV1_Q7Z2W4_272_SCTPSPDQISHR (UniProt Q7Z2W4)	-0.164
ZC3HAV1_Q7Z2W4_513_VDDHDSEEICLDHLCK (UniProt Q7Z2W4)	-0.227
XPNPEP1_Q9NQW7_582_ECDWLNNYHLTCR (UniProt Q9NQW7)	0.0195
XRCC5_P13010_346_CFSVLGFCK (UniProt P13010)	-0.0228
ZC3HAV1_Q7Z2W4_96_CNYSQSER (UniProt Q7Z2W4)	-0.0692
ZC3H11A_O75152_588_SVLTPLRGDVASCNTQVAEKPVLTAVPGITR (UniProt O75152)	-0.241
XPO6_Q96QU8_22_ALESLMTEFFHDCTTNER (UniProt Q96QU8)	0.00177
XPO6_Q96QU8_324_NCVPMEFEEYLLR (UniProt Q96QU8)	-0.0486
XPR1_Q9UBH6_62_FFQTCEK (UniProt Q9UBH6)	0.152
XPO4_Q9C0E2_1149_SLEEFMANVGGLLCVK (UniProt Q9C0E2)	0.185
ZC3H10_Q96K80_79_NEFIFCHDFQNK (UniProt Q96K80)	-0.0316

Target	probe-labelled cysteine peptide fold change
XPO5_Q9HAV4_1157_LIAGCIGK (UniProt Q9HAV4)	0.186
YARS_P54577_519_LGSISCK (UniProt P54577)	0.0139
XRN2_Q9H0D6_266_EEFKPNKPKPCGLCNQFGHEVK (UniProt Q9H0D6)	-0.175
XPO1_O14980_528_DLLGLCEQK (UniProt O14980)	0.0262
YWHAE_P62258_97+98_LICCDILDVLDK (UniProt P62258)	0.12
ZBTB34_Q8NCN2_402_LHMGITPFVCK (UniProt Q8NCN2)	0.0821
XRN2_Q9H0D6_21_KYPSIIVNCVEEK (UniProt Q9H0D6)	0.353
ZER1_Q7Z7L7_337_RPLQFLGLFENSLCR (UniProt Q7Z7L7)	-0.0389
YARS2_Q9Y2Z4_413_EAPFSEFFLDPGTSVLDTCR (UniProt Q9Y2Z4)	0.109
YTHDC2_Q9H6S0_472_EMDACLSDIWLHK (UniProt Q9H6S0)	0.116
YWHAZ_P63104_25_YDDMAACMK (UniProt P63104)	-0.144
XRN2_Q9H0D6_21_KYPSIIVNCVEEKPK (UniProt Q9H0D6)	0.023
ZC3HAV1L_Q96H79_163_ILLLQNDPCLLPEVCLLYNK (UniProt Q96H79)	0.0584
YWHAQ_P27348_25_YDDMATCMK (UniProt P27348)	-0.263
ZCCHC3_Q9NUD5_178_ICFQGDEGACPTR (UniProt Q9NUD5)	0.145
ZBTB44_Q8NCP5_31_NDGHFCDITIR (UniProt Q8NCP5)	0.297
XRCC3_O43542_86_LSLGCPVLDALLR (UniProt O43542)	-0.112
YDJC_A8MPS7_294_AQLAQDGVQLCALDDLDSK (UniProt A8MPS7)	-0.222
XRCC1_P18887_615_WIYSCNEK (UniProt P18887)	0.0387
